Results are given in words; binding and its absence hold for the method and conditions named. For some assays here: In cells and extracts the contact can be indirect. Some results given as binding are weak or reduced against the parent protein; the word gives no strength.
Experiments:
[1] = target: murine ARNT, translated in vitro in rabbit reticulocyte lysate from cDNA in pcDNA3 (mouse) (UniProt P53762); test: electrophoretic mobility shift with DRE oligonucleotide, AhR and ARNT in RRL
[2] = target: murine ARNT, translated in vitro in rabbit reticulocyte lysate from cDNA in pcDNA3 (mouse) (UniProt P53762); test: co-immunoprecipitation with anti-AhR antibody of in vitro translated AhR and Arnt mixed in RRL (DMSO, TCDD, EGCG, TCDD plus EGCG), SDS-PAGE, phosphorImager

Protein sequences, listed by entry. Tags and fused reporters are not part of them. Residues count along the entry.
UniProt P53762: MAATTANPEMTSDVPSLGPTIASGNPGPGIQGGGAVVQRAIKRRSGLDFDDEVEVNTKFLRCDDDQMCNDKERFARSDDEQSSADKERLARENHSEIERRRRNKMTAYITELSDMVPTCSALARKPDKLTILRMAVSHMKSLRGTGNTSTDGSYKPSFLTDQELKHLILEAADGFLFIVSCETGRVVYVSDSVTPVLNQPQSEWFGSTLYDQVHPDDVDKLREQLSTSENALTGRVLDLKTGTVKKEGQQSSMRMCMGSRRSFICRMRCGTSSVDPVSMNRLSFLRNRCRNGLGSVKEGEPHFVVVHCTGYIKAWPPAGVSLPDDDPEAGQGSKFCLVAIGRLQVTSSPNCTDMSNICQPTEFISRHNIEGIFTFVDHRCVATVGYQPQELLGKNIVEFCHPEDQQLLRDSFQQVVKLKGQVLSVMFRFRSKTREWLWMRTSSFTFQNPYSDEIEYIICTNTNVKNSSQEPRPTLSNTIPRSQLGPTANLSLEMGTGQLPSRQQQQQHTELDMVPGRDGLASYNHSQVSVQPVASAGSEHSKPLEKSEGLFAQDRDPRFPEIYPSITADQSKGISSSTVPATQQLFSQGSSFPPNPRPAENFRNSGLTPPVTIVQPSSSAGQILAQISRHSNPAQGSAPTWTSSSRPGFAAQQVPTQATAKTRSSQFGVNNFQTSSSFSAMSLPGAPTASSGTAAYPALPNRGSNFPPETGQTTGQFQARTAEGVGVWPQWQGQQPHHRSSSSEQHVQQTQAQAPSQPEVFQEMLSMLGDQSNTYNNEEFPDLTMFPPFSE
UniProt P30561, residues 1-805: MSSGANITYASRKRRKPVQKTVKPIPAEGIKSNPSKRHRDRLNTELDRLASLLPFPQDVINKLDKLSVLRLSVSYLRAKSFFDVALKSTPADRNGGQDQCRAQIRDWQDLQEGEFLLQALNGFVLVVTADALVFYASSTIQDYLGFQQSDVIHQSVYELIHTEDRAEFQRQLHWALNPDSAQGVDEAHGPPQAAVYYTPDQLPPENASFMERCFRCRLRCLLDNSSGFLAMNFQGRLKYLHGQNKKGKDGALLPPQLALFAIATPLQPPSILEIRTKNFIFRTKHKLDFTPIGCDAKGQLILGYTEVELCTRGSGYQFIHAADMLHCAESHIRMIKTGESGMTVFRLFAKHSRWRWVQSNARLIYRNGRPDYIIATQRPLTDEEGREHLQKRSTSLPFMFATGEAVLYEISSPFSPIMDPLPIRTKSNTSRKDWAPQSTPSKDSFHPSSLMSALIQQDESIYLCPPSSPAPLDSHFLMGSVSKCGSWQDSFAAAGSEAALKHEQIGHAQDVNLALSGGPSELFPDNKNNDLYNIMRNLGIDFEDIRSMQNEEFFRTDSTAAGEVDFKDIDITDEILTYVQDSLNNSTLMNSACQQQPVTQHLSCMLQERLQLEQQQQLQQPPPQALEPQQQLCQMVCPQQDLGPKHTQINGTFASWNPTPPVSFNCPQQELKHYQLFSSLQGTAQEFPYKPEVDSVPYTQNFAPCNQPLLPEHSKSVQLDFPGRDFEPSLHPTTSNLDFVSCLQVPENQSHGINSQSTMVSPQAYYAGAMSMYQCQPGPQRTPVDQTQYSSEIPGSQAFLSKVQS

binding [1]: binds | binding [2]: binds
Substance: murine aryl hydrocarbon receptor (AhR), translated in vitro in rabbit reticulocyte lysate from cDNA in pcDNA3 (from UniProt P30561 1-805)

Source: US20080193932A1
